Assay results reported in patent publication US5639729A, “Tripeptides useful in immune and CNS therapy” (Immunobiology Research Institute, Inc., priority 1993, dated 1997).
Not every detail of the peptide structures is certain; ends, links or a residue may be inferred.

Test system: insulin-induced ACTH secretion
Assay: Effect of peptide on insulin-induced ACTH secretion (insulin challenge)
Assay type: in vivo, Sprague-Dawley rats
Conditions: rats
Method: As mentioned above, the administration of insulin can be used as a provocative challenge test to determine how an organism responds to stress and how the response can be manipulated. It was shown in FIG. 1 that, in rats, administration of insulin causes an increase in plasma concentrations of ACTH.
Adult male Sprague-Dawley rats were used in these experiments. After an overnight fast, the peptide or saline was administered by oral gavage or by subcutaneous injection to the experimental subjects. Doses of the peptide ranged from 0.1 to 10 mg/kg by the oral route and 0.03 to 3.0 mg/kg by the subcutaneous route. […] all animals were treated with insulin (0.5 IU/kg) and were sacrificed by decapitation 30 minutes later. As above, trunk blood was collected in polypropylene tubes containing 400 μl of 10% EDTA at 4° C. Plasma was separated by centrifugation and stored at -80° C. until being used for ACTH determinations, ACTH concentrations were determined by RIA as described by Nicholson et al, cited above, using antiserum [IgG Corporation] and ^125 I-labelled ACTH [ICN Corporation].

CC(=O)N[C@@H](CCCNC(=N)N)C(=O)N1CCC[C@H]1C(=O)N[C@@H](CC(=O)O)C(=O)NCC(C)C [Acetyl-Arg--Pro--Asp--NH-isobutyl, Acetyl-Arg-Pro-Asp-NH-isobutyl]
ACTH response to insulin (0.1 mg/kg subcutaneous, 48 hours before insulin 0.5 IU/kg): slight suppression | insulin-induced ACTH secretion (1 mg/kg p.o., 48 hours before insulin 0.5 IU/kg): only minor effects | ACTH response to insulin (1.0 mg/kg subcutaneous, 48 hours before insulin 0.5 IU/kg): suppressed the ACTH response | magnitude of the ACTH response to insulin (3.0 mg/kg p.o., 48 hours before insulin 0.5 IU/kg): highly significant decreases | ACTH response to insulin (3.0 mg/kg subcutaneous, 48 hours before insulin 0.5 IU/kg): suppressed the ACTH response | magnitude of the ACTH response to insulin (10.0 mg/kg p.o., 48 hours before insulin 0.5 IU/kg): highly significant decreases | threshold dose for significant suppression of insulin-induced ACTH secretion (s.c., administered 48 hours before insulin 0.5 IU/kg): 0.3 mg/kg | minimal effective dose by the s.c. route relative to the p.o. route (suppression of insulin-induced ACTH secretion): ten-fold lower
